No constants are given. Whether binding was seen depends on the method and setting. For part of these data: In cells and extracts the contact can be indirect. Some entries that bind do so weakly or less than the wild type. For part of these data: Tags and fused reporters may be left off the sequences shown.

Sequences of proteins named here, by UniProt entry; tags and fusion partners are left off.
UniProt Q9Y572: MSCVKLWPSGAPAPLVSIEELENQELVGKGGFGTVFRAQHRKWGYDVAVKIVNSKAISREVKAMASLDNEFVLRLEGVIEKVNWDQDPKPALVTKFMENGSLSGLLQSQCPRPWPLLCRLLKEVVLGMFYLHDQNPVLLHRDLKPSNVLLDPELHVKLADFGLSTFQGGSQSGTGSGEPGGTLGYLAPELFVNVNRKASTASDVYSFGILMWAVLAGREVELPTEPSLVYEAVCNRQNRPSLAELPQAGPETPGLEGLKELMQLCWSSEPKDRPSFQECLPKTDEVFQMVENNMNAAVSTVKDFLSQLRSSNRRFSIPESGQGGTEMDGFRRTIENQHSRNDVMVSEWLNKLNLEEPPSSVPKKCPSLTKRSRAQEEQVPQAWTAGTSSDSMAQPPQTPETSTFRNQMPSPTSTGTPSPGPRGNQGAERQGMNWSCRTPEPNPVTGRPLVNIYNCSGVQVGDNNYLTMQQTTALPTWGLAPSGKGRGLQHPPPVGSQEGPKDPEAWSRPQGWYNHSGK

For assay [1], the target named is T1, RHIM-A mutant human ZBP1 (mutRHIM-A) fused C-terminally to eGFP-V5 (human) (UniProt Q9H171).
T1 sequence: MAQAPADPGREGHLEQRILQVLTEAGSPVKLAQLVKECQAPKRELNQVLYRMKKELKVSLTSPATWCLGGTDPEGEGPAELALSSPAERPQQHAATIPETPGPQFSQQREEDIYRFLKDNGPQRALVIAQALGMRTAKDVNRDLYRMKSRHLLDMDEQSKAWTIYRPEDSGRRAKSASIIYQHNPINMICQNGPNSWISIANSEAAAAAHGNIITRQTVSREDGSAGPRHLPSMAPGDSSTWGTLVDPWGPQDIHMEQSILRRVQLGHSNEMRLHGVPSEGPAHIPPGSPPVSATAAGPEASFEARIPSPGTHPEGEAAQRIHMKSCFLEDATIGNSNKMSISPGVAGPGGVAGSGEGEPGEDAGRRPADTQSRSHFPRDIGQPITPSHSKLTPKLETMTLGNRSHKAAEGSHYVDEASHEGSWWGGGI
In words: co-IP.

In assay [2] the target is T2, RHIM-B mutant human ZBP1 (mutRHIM-B) fused C-terminally to eGFP-V5 (human) (UniProt Q9H171).
T2 sequence: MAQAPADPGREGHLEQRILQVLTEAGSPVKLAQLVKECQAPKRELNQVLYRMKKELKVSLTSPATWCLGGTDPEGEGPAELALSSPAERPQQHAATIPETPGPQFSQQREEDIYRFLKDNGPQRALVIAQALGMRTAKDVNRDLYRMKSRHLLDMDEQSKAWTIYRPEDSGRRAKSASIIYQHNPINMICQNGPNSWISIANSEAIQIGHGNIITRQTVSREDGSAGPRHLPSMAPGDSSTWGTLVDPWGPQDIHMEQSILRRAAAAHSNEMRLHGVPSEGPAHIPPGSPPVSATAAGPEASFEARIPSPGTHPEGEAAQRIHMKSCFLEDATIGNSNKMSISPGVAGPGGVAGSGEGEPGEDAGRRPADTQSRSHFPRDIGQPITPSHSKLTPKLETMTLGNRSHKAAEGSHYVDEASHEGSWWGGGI
In words: co-IP.

The target of assay [3] is T3, RHIM-C mutant human ZBP1 (mutRHIM-C) fused C-terminally to eGFP-V5 (human) (UniProt Q9H171).
T3 sequence: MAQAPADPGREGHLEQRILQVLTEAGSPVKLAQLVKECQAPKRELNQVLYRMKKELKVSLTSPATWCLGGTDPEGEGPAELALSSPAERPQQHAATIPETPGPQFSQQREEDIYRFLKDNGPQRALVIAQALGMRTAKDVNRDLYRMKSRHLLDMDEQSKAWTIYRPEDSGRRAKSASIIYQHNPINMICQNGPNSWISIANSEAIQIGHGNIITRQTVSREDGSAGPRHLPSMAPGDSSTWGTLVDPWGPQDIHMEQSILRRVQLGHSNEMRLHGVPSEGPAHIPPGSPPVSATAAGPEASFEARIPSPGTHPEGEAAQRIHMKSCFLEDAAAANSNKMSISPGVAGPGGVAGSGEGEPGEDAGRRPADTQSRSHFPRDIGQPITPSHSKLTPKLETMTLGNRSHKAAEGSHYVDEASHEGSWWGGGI
Put plainly: co-IP.

Assay [4] has as its target Zα domains-mutant human ZBP1 (mutZα1α2) fused C-terminally to eGFP-V5 (human) (UniProt Q9H171). In words: co-IP.
Assay [5] deals with T4, wild type human ZBP1 (isoform 1) fused C-terminally to eGFP-V5 (human) (UniProt Q9H171).
T4 sequence: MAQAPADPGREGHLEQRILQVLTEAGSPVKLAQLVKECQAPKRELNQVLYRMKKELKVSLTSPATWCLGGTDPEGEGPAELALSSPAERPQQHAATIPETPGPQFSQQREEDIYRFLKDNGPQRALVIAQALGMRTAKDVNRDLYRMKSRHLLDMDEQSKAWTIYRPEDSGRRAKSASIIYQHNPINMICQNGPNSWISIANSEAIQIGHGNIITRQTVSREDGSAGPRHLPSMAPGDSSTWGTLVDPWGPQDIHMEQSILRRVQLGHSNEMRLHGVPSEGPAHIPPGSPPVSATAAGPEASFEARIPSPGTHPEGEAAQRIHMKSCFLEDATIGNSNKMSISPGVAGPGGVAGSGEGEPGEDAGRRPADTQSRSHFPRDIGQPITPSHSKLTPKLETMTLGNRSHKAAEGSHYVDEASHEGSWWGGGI
Put plainly: co-IP.

The target of assay [6] is T5, wild type human ZBP1 (isoform 1) fused C-terminally to eGFP-V5 (human), Q9H171.
T5 chain: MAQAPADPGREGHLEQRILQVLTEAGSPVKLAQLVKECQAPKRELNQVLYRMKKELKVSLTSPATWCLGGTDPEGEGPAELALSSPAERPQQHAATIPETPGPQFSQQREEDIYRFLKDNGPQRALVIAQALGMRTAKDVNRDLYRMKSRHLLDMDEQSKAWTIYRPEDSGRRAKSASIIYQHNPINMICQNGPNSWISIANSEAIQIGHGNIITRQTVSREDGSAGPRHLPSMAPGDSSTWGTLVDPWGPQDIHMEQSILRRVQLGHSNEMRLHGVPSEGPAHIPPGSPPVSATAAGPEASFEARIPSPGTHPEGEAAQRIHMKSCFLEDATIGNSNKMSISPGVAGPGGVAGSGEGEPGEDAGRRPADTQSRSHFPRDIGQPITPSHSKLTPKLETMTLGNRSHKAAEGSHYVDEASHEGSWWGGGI
In words: semi-denaturing detergent agarose gel electrophoresis. The settings on record: remark: other sources report otherwise.

The target of assay [7] is T5, wild type human ZBP1 (isoform 1) fused …. Put plainly: co-IP. The settings on record: remark: other sources report otherwise.

With “receptor-interacting serine/threonine-protein kinase 1 (RIPK1) (from UniProt Q13546 1-671)”, the binding entry is “no binding” in assay [1], “binds” in assay [2], “binds” in assay [3] and “no binding” in assay [4].
In the case of “receptor-interacting serine/threonine-protein kinase 3 (RIPK3) (from UniProt Q9Y572 1-518)”, the binding result in assay [1] is given as “no binding”; in assay [2], “binds”; in assay [3], “binds”; in assay [4], “no binding”; in assay [5] it was “binds”.
Turning to “RIPK3 autophosphorylated on Ser227 (kinase active form) (from UniProt Q9Y572 1-518)”, the binding entry in assay [5] is reported as “binds”.

B1: wild type human ZBP1 (isoform 1) fused C-terminally to eGFP-V5, Q9H171 1-429 (protein)
chain: MAQAPADPGREGHLEQRILQVLTEAGSPVKLAQLVKECQAPKRELNQVLYRMKKELKVSLTSPATWCLGGTDPEGEGPAELALSSPAERPQQHAATIPETPGPQFSQQREEDIYRFLKDNGPQRALVIAQALGMRTAKDVNRDLYRMKSRHLLDMDEQSKAWTIYRPEDSGRRAKSASIIYQHNPINMICQNGPNSWISIANSEAIQIGHGNIITRQTVSREDGSAGPRHLPSMAPGDSSTWGTLVDPWGPQDIHMEQSILRRVQLGHSNEMRLHGVPSEGPAHIPPGSPPVSATAAGPEASFEARIPSPGTHPEGEAAQRIHMKSCFLEDATIGNSNKMSISPGVAGPGGVAGSGEGEPGEDAGRRPADTQSRSHFPRDIGQPITPSHSKLTPKLETMTLGNRSHKAAEGSHYVDEASHEGSWWGGGI
Consider B1, for which the binding result in assay [6] is “binds”.

B2: RIPK1 autophosphorylated on Ser166 (kinase active form), Q13546 1-671 (protein)
chain: MQPDMSLNVIKMKSSDFLESAELDSGGFGKVSLCFHRTQGLMIMKTVYKGPNCIEHNEALLEEAKMMNRLRHSRVVKLLGVIIEEGKYSLVMEYMEKGNLMHVLKAEMSTPLSVKGRIILEIIEGMCYLHGKGVIHKDLKPENILVDNDFHIKIADLGLASFKMWSKLNNEEHNELREVDGTAKKNGGTLYYMAPEHLNDVNAKPTEKSDVYSFAVVLWAIFANKEPYENAICEQQLIMCIKSGNRPDVDDITEYCPREIISLMKLCWEANPEARPTFPGIEEKFRPFYLSQLEESVEEDVKSLKKEYSNENAVVKRMQSLQLDCVAVPSSRSNSATEQPGSLHSSQGLGMGPVEESWFAPSLEHPQEENEPSLQSKLQDEANYHLYGSRMDRQTKQQPRQNVAYNREEERRRRVSHDPFAQQRPYENFQNTEGKGTAYSSAASHGNAVHQPSGLTSQPQVLYQNNGLYSSHGFGTRPLDPGTAGPRVWYRPIPSHMPSLHNIPVPETNYLGNTPTMPFSSLPPTDESIKYTIYNSTGIQIGAYNYMEIGGTSSSLLDSTNTNFKEEPAAKYQAIFDNTTSLTDKHLDPIRENLGKHWKNCARKLGFTQSQIDEIDHDYERDGLKEKVYQMLQKWVMREGIKGATVGKLAQALHQCSRIDLLSSLIYVSQN
modifications: here or on the partner: phosphoserine at 166 (autophosphorylation)
In the case of B2, the binding entry in assay [7] is “binds”.

The values above are taken from article doi:10.1101/2025.06.06.658343.
